Source: publication PMC3000357 (PLoS Genetics, 2010)
No constants are given. Whether binding was seen depends on the method and setting. Some results given as binding are weak or reduced against the parent protein; the word gives no strength. Values belong to the binder of their own block, whether it stands above or below them.

What was measured:
[1] = biological target: T1, Bacillus subtilis Single-Stranded DNA Binding protein (SSB), purified (Bacillus subtilis) (UniProt P37455); experiment: SEC; purified RecS (4 µM) or YpbB/RecS (4 µM) mixed on ice with SSB (16 µM or 40 µM, as monomers) and loaded onto a gel-filtration column; fractions on SDS-PAGE, Coomassie; both purified
T1 sequence: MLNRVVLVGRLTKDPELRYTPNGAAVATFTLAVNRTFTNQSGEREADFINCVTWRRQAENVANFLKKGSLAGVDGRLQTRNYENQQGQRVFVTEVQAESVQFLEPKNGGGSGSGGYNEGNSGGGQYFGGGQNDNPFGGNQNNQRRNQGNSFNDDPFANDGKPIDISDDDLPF

[2] = biological target: T1, Bacillus subtilis Single-Stranded DNA Binding protein (SSB), purified (Bacillus subtilis); experiment: pull-down; streptavidin magnetic beads with a biotinylated 65-mer ssDNA coated by purified SSB or SSBΔ6 (80 pmol of tetramer; SSBΔ35: 100 pmol of tetramer, 60 pmol of tested protein); purified protein added in 20 mM Tris-HCl pH 7.5, 200 mM NaCl, 30 min, 20°C; SDS-PAGE, Coomassie; both purified
[3] = biological target: T2, SSBΔ35, purified (Bacillus subtilis) (UniProt P37455); experiment: as above
T2 sequence: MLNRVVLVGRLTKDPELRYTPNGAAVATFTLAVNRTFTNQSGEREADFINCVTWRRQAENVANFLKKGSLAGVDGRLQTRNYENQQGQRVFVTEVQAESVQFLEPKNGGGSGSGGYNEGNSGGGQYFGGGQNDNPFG

[4] = biological target: T3, SSBΔ6, purified (Bacillus subtilis) (UniProt P37455); experiment: as above
T3 sequence: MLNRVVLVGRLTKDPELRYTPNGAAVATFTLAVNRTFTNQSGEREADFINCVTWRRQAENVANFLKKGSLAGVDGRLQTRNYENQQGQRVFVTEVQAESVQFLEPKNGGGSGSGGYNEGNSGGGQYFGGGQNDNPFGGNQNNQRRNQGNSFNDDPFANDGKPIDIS

B1: RecS, purified (enzyme, UniProt P50729 1-496)
chain: MTKLQQTLYQFFGFTSFKKGQQDIIESILSGKDTIAMLPTGGGKSLCYQLPGYMLDGMVLIVSPLLSLMEDQVQQLKARGEKRAAALNSMLNRQERQFVLEHIHRYKFLYLSPEALQSPYVLEKLKSVPISLFVIDEAHCISEWGHDFRPDYSKLGQLRKKLGHPPVLALTATATKETLQDVMNLLELQHAVRHLNSVNRPNIALRVENAADTAEKIDRVIQLVENLQGPGIVYCPTRKWAKELAGEIKSKTSSRADFYHGGLESGDRILIQQQFIHNQLDVICCTNAFGMGVDKPDIRYVIHFHLPQTAEAFMQEIGRAGRDGKPSVSILLRAPGDFELQEQIIQMESVTAEEIADVIRVLEKTEERDERRLRDVLLQYGVGETQARMMIHLFMQGKTSVELMKKEISYRMELKLEKMHRVSFLLQRDGCLRQALLTYFDESYEPDDGNLPCCSHCGFDLSLYEQKGERSKMAPLDSWSSELHRIFSLQTVGELN
- binding [1]: no binding (tested: RecS 4 µM, SSB 16 µM)

- binding [2]: no binding
B2: PcrA, purified (enzyme, UniProt O34580 1-739)
chain: MNYISNQLLSGLNPVQQEAVKTTDGPLLLMAGAGSGKTRVLTHRIAYLMAEKHVAPWNILAITFTNKAAREMKERVESILGPGADDIWISTFHSMCVRILRRDIDRIGINRNFSILDTADQLSVIKGILKERNLDPKKFDPRSILGTISSAKNELTEPEEFSKVAGGYYDQVVSDVYADYQKKLLKNQSLDFDDLIMTTIKLFDRVPEVLEFYQRKFQYIHVDEYQDTNRAQYMLVKQLAERFQNLCVVGDSDQSIYRWRGADITNILSFEKDYPNASVILLEQNYRSTKRILRAANEVIKNNSNRKPKNLWTENDEGIKISYYRGDNEFGEGQFVAGKIHQLHSTGKRKLSDIAILYRTNAQSRVIEETLLKAGLNYNIVGGTKFYDRKEIKDILAYLRLVSNPDDDISFTRIVNVPKRGVGATSLEKIASYAAINGLSFFQAIQQVDFIGVSAKAANALDSFRQMIENLTNMQDYLSITELTEEILDKTEYREMLKAEKSIEAQSRLENIDEFLSVTKNFEQKSEDKTLVAFLTDLALIADIDQLDQKEEESGGKDAITLMTLHAAKGLEFPVVFLMGLEEGVFPHSRSLMEEAEMEEERRLAYVGITRAEQELYLTNAKMRTLFGRTNMNPESRFIAEIPDDLLENLNEKKETRATSARKMQPRRGPVSRPVSYASKTGGDTLNWAVGDKAGHKKWGTGTVVSVKGEGEGTELDIAFPSPVGVKRLLAAFAPIEKQ

- binding [3]: binds weakly
- binding [4]: binds weakly
B3: DnaE, purified (enzyme, UniProt O34623 1-1115)
chain: MSFVHLQVHSGYSLLNSAAAVEELVSEADRLGYASLALTDDHVMYGAIQFYKACKARGINPIIGLTASVFTDDSELEAYPLVLLAKSNTGYQNLLKISSVLQSKSKGGLKPKWLHSYREGIIAITPGEKGYIETLLEGGLFEQAAQASLEFQSIFGKGAFYFSYQPFKGNQVLSEQILKLSEETGIPVTATGDVHYIRKEDKAAYRCLKAIKAGEKLTDAPAEDLPDLDLKPLEEMQNIYREHPEALQASVEIAEQCRVDVSLGQTRLPSFPTPDGTSADDYLTDICMEGLRSRFGKPDERYLRRLQYELDVIKRMKFSDYFLIVWDFMKHAHEKGIVTGPGRGSAAGSLVAYVLYITDVDPIKHHLLFERFLNPERVSMPDIDIDFPDTRRDEVIQYVQQKYGAMHVAQIITFGTLAAKAALRDVGRVFGVSPKEADQLAKLIPSRPGMTLDEARQQSPQLDKRLRESSLLQQVYSIARKIEGLPRHASTHAAGVVLSEEPLTDVVPLQEGHEGIYLTQYAMDHLEDLGLLKMDFLGLRNLTLIESITSMIEKEENIKIDLSSISYSDDKTFSLLSKGDTTGIFQLESAGMRSVLKRLKPSGLEDIVAVNALYRPGPMENIPLFIDRKHGRAPVHYPHEDLRSILEDTYGVIVYQEQIMMIASRMAGFSLGEADLLRRAVSKKKKEILDRERSHFVEGCLKKEYSVDTANEVYDLIVKFANYGFNRSHAVAYSMIGCQLAYLKAHYPLYFMCGLLTSVIGNEDKISQYLYEAKGSGIRILPPSVNKSSFPFTVENGSVRYSLRAIKSVGVSAVKDIYKARKEKPFEDLFDFCFRVPSKSVNRKMLEALIFSGAMDEFGQNRATLLASIDVALEHAELFAADDDQMGLFLDESFSIKPKYVETEELPLVDLLAFEKETLGIYFSNHPLSAFRKQLTAQGAVSILQAQRAVKRQLSLGVLLSKIKTIRTKTGQNMAFLTLSDETGEMEAVVFPEQFRQLSPVLREGALLFTAGKCEVRQDKIQFIMSRAELLEDMDAEKAPSVYIKIESSQHSQEILAKIKRILLEHKGETGVYLYYERQKQTIKLPESFHINADHQVLYRLKELLGQKNVVLKQW
